According to PMC9242446:
No constants are given. Whether binding was seen depends on the method and setting. Some results given as binding are weak or reduced against the parent protein; the word gives no strength.

Target: Bacillus subtilis ParB (partition protein B) L5C variant labeled with Alexa Fluor 647 (Bacillus subtilis) (UniProt P26497)
Experiment: single-molecule fluorescence imaging (HiLo microscopy) on stretched DNA; as a1 but 1 mM CTPγS in place of 1 mM CTP; both purified

B1: Bacillus subtilis ParB (partition protein B) L5C variant labeled with Alexa Fluor 647 (protein, UniProt P26497 1-282)
chain: MAKGCGKGINALFNQVDLSEETVEEIKIADLRPNPYQPRKHFDDEALAELKESVLQHGILQPLIVRKSLKGYDIVAGERRFRAAKLAGLDTVPAIVRELSEALMREIALLENLQREDLSPLEEAQAYDSLLKHLDLTQEQLAKRLGKSRPHIANHLRLLTLPENIQQLIAEGTLSMGHGRTLLGLKNKNKLEPLVQKVIAEQLNVRQLEQLIQQLNQNVPRETKKKEPVKDAVLKERESYLQNYFGTTVNIKRQKKKGKIEIEFFSNEDLDRILELLSERES
modifications: Alexa Fluor 647-C2-maleimide on the L5C variant (labeling efficiency 74%)
B1 was tested, and the binding was “binds weakly”.
